# From paper PMC6726247
# Chains of the proteins cited; added tags and fusions are not shown.
# UniProt Q9CWH6: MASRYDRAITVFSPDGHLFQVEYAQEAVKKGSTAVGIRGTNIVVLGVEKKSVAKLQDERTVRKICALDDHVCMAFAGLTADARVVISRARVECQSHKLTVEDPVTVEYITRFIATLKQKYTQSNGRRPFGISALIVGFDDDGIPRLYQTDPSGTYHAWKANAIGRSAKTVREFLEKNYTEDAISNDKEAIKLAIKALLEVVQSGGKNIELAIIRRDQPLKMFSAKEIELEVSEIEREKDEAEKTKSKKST
# UniProt P70398: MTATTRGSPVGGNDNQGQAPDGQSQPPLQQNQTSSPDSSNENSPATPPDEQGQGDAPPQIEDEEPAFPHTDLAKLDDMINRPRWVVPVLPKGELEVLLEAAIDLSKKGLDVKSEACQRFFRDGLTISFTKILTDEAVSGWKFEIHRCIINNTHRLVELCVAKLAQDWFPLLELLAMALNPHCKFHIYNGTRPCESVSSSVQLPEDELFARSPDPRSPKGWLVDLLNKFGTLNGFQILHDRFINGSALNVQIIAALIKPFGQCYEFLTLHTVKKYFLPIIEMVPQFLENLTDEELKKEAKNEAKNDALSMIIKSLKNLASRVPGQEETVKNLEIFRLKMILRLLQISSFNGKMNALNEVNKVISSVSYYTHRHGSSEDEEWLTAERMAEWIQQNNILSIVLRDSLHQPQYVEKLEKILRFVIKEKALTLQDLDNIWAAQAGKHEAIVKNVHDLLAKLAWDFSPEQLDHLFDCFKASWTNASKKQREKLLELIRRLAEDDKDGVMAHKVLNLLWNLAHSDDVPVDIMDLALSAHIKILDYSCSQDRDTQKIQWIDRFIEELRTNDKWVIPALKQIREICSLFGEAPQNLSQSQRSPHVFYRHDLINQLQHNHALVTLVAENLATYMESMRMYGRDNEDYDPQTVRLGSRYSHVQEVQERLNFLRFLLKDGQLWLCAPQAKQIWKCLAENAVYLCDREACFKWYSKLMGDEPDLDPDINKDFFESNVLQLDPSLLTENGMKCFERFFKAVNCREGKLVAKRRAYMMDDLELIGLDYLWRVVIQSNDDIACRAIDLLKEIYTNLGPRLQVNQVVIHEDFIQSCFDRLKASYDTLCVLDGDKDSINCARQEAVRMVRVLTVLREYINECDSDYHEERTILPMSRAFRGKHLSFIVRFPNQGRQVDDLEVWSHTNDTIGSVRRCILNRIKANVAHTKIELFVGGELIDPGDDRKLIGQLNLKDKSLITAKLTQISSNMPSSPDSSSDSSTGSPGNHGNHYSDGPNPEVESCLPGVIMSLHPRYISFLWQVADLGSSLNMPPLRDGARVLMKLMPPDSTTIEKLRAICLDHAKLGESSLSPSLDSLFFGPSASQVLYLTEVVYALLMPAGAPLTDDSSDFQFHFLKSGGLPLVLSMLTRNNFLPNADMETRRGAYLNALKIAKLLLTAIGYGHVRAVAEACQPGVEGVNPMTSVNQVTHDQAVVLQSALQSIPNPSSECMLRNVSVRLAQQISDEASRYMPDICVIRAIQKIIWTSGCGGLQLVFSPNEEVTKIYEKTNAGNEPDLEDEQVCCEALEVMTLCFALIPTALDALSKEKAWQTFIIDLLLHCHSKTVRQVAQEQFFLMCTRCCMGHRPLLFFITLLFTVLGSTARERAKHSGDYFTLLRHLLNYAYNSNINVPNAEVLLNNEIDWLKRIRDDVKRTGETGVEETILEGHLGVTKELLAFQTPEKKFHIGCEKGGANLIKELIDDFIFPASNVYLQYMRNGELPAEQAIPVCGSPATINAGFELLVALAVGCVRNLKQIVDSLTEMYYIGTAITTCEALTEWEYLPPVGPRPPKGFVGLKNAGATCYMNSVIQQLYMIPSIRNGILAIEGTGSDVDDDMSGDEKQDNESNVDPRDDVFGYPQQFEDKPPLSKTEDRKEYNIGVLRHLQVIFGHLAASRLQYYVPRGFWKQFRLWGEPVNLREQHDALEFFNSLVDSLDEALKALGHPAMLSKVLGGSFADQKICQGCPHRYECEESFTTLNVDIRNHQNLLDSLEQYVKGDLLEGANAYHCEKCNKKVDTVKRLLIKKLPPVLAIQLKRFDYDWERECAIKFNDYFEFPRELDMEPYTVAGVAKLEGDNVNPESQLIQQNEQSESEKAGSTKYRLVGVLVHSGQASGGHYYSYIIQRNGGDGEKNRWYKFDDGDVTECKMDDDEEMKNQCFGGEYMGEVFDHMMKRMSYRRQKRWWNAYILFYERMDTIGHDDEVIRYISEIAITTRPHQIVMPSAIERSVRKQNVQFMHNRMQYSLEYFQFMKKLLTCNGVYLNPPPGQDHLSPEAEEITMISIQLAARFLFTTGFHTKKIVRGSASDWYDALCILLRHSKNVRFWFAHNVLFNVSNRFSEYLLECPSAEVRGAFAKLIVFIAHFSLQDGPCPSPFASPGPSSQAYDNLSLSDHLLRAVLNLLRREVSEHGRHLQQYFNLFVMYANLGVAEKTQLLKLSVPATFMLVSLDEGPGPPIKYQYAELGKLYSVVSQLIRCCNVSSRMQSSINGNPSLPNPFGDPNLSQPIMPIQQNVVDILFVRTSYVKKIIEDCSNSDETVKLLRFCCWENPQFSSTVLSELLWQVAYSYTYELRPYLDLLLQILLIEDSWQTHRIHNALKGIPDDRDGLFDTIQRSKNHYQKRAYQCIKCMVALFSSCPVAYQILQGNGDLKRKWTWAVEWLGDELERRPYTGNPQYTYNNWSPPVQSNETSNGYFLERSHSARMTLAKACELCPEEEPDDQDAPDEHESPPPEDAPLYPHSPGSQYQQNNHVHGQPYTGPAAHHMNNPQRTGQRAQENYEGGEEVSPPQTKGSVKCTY
# UniProt Q61390: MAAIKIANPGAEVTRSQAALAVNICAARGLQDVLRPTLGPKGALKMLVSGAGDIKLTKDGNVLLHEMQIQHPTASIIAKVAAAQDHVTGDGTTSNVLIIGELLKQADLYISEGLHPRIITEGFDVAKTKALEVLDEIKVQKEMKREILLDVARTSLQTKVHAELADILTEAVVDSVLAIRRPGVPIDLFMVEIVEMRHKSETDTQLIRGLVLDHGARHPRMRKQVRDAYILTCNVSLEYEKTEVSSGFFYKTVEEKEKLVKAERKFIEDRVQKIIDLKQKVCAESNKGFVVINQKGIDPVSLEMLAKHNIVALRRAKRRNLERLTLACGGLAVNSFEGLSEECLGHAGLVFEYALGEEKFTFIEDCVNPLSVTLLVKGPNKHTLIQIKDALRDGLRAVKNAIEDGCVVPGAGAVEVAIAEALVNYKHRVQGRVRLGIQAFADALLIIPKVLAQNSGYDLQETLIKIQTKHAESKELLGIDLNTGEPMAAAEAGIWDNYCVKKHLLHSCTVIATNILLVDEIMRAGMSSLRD
# UniProt P11440: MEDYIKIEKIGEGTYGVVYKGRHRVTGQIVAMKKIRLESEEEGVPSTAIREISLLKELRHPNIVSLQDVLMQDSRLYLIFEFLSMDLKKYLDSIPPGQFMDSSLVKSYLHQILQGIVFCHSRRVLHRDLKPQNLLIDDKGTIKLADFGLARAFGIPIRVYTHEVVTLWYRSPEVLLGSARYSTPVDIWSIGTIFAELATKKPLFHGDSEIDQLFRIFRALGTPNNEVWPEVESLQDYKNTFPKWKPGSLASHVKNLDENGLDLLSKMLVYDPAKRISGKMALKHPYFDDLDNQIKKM
# UniProt G5E870: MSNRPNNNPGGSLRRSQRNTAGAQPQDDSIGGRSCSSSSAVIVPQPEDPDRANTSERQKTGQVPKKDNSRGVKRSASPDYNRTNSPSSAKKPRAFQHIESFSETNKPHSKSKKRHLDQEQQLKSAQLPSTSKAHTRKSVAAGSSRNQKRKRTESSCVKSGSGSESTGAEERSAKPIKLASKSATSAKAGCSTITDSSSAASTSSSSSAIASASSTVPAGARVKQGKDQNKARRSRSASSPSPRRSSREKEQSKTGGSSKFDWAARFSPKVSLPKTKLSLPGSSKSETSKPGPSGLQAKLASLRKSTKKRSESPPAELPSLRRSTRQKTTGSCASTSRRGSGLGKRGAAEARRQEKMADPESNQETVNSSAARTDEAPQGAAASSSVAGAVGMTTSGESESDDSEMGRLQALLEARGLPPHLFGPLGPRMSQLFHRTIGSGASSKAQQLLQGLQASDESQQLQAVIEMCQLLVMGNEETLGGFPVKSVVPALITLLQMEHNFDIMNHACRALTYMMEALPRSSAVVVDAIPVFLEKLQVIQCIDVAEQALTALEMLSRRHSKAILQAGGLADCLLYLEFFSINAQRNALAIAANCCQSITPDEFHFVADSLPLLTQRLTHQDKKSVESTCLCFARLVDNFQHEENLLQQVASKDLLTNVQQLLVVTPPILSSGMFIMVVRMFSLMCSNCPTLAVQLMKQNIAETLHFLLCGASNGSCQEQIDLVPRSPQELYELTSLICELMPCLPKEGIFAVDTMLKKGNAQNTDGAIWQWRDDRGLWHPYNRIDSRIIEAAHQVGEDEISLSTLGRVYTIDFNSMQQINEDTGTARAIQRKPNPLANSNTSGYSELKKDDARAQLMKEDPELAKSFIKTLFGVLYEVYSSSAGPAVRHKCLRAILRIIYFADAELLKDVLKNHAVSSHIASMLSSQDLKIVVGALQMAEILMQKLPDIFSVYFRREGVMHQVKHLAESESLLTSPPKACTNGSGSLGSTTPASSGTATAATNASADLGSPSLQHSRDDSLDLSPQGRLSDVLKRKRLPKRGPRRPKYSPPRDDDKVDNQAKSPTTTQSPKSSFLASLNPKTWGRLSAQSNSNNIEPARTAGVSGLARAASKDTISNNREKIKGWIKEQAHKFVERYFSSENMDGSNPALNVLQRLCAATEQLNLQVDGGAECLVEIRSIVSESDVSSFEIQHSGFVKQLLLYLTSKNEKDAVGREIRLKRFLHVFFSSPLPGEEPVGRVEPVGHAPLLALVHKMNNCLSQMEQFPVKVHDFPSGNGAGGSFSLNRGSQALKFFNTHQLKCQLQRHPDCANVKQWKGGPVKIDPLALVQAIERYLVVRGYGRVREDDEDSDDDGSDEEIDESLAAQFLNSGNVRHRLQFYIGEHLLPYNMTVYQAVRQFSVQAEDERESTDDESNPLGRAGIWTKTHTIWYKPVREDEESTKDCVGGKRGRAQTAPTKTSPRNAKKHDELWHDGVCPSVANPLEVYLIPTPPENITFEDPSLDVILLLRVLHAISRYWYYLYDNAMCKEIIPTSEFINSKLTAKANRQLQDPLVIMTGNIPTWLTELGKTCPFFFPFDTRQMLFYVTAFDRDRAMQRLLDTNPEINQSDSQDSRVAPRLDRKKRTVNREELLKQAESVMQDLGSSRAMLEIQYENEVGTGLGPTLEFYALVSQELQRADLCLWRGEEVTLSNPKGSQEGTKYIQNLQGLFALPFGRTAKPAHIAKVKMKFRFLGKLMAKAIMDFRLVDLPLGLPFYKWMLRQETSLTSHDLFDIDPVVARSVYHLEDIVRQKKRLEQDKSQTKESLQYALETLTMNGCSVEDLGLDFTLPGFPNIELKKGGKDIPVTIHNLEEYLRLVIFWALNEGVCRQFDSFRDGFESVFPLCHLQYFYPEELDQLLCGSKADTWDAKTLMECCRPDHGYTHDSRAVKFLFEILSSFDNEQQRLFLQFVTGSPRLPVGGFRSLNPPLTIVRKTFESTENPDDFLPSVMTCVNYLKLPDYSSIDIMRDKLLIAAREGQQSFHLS
# UniProt P56399: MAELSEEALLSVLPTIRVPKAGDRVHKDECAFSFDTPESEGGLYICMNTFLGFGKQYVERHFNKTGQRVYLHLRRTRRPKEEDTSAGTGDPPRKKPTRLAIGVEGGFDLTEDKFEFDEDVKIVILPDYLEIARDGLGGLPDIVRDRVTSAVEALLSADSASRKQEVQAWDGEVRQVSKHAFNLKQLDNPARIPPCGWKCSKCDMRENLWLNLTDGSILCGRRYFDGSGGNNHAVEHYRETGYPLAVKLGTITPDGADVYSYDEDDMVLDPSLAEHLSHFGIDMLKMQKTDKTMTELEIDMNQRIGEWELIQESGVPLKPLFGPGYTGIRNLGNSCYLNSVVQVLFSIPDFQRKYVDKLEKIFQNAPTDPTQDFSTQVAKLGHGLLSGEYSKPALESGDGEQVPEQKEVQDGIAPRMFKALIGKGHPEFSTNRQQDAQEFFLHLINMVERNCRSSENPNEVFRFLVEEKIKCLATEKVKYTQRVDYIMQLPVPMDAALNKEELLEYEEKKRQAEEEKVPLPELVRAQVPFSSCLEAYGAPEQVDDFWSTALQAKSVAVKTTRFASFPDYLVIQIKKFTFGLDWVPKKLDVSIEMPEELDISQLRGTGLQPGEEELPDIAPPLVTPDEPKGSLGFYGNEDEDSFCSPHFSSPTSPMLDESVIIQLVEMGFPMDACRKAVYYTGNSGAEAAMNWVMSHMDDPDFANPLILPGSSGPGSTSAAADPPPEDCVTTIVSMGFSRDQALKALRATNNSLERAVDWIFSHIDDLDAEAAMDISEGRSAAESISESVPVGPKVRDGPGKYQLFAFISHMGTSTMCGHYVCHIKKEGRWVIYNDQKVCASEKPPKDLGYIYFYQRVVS
# These are yes or no findings as the source states them, for the method shown. Binding seen in cells or lysates may run through a third protein. These calls come from enrichment with a bait or labelling near it, and not all partners need be listed.
# B1: SPATA5 (Spermatogenesis-associated protein 5) (protein, UniProt Q3UMC0 1-893)
# chain: MSSKKNRKRQKEGAEGASPSLSAAPSRSGTSTPFAQPSPAAPGMLVVTNFLEKVDGKVPKTFQNSLVHLGLNTMKSANICIGRPVLLTSLDGKQEVYTAWPVAGFPGGKVGLSEMAQKNVGVRAGETIQVQPLLGAVLQAQEMDLALSDKDKEINEEELTGCILRKLDGKIVLPGNFLYCTFYGRLCKLQVLQVKGTDGTTLGKLQSASGTDAQGMASEHSSMESSDVDLSFQLSQLDLKEPQSPSSQSTPCKPTNDRTVNKAGEVLLDVTQSPRDGSGLGLEESTGLKCSFDSSKEGNTQPVSEEKLLKPASAGTKSNTDTFYFISSTTRINLRKICTNSKEQDSQFKVTYDMIGGLNSQLKAIREIIELPLKQPELFKSYGIPAPRGLLLYGPPGTGKTMIARAVANEVGAYVSVINGPEIISKFYGETEARLRQIFAEATLRHPSIIFIDELDALCPKREGAQSEVEKRVVASLLTLMDGIGSEGSEGRVLVLGATNRPQALDAALRRPGRFDKEIEIGIPNAQDRLDILQKLLRRVPHLLTKAELLRLANNAHGYVGADLKALCNEAGLHALRRVLRKQPNLPDSKVAGMVKITLNDFLQGMNDIRPSAMREVAIDVPNVSWSDIGGLENIKLKLKQAVEWPLKHPKSFNRMGIQPPKGVLLYGPPGCSKTMIAKALANESGLNFLAIKGPELMNKYVGESERAVREIFRKARAVAPSIIFFDELDALAVERGSSSGAGNVADRVLAQLLTEMDGIEQLKNVTVLAATNRPDRIDKALMRPGRIDRIIYVPLPDAATRREILNLQFHSMPISNEVDLDELVLQTDTYSGAEIIAVCKEAALLALEENIKADCIMKRHFTQALSIVTPRIPESLRRFYEDYQEKSGLHTV
# B2: TDRD1 (tudor domain protein) (protein, UniProt Q99MV1 1-1172)
# chain: MMPRNNLEASTCKMAEPFNFEKKESKPPPQDPLRSPVAQHNHPTFRLKSPENGNTKNNFLLCEQNKQYLASQEDSSVVSSNPAVVNGEVGGSKGDRKPPPTGNPVSPLSLGNSSPPNQVKTKPSSNVTPEKSKKSHKLFENALSVNNPALFNSLGPPLRSTTCHRCGLFGSLRCSQCKQTYYCSTACQRRDWSSHSTICRPVQQSLNKLEDNKSPFETKAIEVKSEVDCPPGVTKEITAGAERVMFSDLRSLQLKKTMEIKGTVTEFKHPSNFYIQLYSSEVLENMNQLSTSLKETYANVVPEDGYLPVKGEVCVAKYTVDQTWNRAIVQAVDVLQRKAHVLYIDYGNEEMIPIDSVHPLSRGLDLFPPSAIKCCVSGVIPTAGEWSEGCVAAVKALLFEQFCSVKVMDILEEEVLTCAVDLVLQSSGKQLDHVLVEMGYGVKPGEQSSTEQSVDHSALEDVGRVTVESKIVTDRNALIPKVLTLNVGDEFCGVVAHIQTPEDFFCQQLQSGHKLAELQESLSEYCGHVIPRSDFYPTIGDVCCAQFSEDDQWYRASVLAYASEESVLVGYVDYGNFEILSLKRLCPIIPKLLDLPMQALNCVLAGVKPSLGIWTPEAVCVMKEMVQNRMVTVRVVGMLGTRALVELIDKSVAPHVSASKALIDSGFAIKEKDVADKGSSMHTASVPLAIEGPAEALEWTWVEFTVDETVDVVVCMMYSPGEFYCHFLKDDALEKLDDLNQSLADYCAQKPPNGFKAEIGRPCCAFFSGDGNWYRALVKEILPSGNVKVHFVDYGNVEEVTTDQLQAILPQFLLLPFQGMQCWLVDIQPPNKHWTKEATARFQACVVGLKLQARVVEITANGVGVELTDLSTPYPKIISDVLIREQLVLRCGSPQDSLMSRPANQHKQIDSHRVQASPSAEQWKTMELPVNKTIAANVLEIISPALFYAIPSEMSENQEKLCVLAAELLEHCNAQKGQPAYRPRTGDACCAKYTNDDFWYRAIVLETSESDVKVLYADYGNIETLPLSRVQPIPASHLELPFQIIRCSLEGPMELNGSCSQLVMELLRNAMLNQSVVLSVKAISKNVHAVSVEKCSENGMINIAENLVMCGLAENLTSKRKSASTKEIPHSRDCCCTELQKQIEKHEQILLFLLNNPTNQSKFTEMKKLLRS
# B3: DAZL (deleted in azoospermia) (protein, UniProt Q64368 1-298)
# chain: MSATTSEAPNSAVSREASTQSSSATTSQGYVLPEGKIMPNTVFVGGIDVRMDETEIRSFFARYGSVKEVKIITDRTGVSKGYGFVSFYNDVDVQKIVESQINFHGKKLKLGPAIRKQNLCTYHVQPRPLIFNPPPPPQFQSVWSSPNAETYMQPPTMMNPITQYVQAYPPYPSSPVQVITGYQLPVYNYQMPPQWPAGEQRSYVIPPAYTTVNYHCSEVDPGADILPNECSVHDAAPASGNGPQKKSVDRSIQTVVSCLFNPENRLRNSLVTQDDYFKDKRVHHFRRSRAVLKSDHLC
# B4: USP47 (protein, UniProt Q8BY87 1-1376)
# chain: MVPGEENQLVPKEDVFWRCRQNIFDEMKKKFLQIENAAEEPRVLCIIQDTTNSKTVSERITLNLPASTPVRKLFEDVANKVGYINGTFDLTRENGVTTADMAPLDHTSDKSLLDANFEPGKKNFLHLTDKDGEPPQMLLEDSNNVDDSVHDRFIGPLPREGSVASTNDYVSQNYSYSSILNKSETGYVGLVNQAMTCYLNSLLQTLFMTPEFRNALYKWEFEDSEEDPVTSIPYQLQRLFVLLQTSKKRAIETTDVTRSFGWDSSEAWQQHDVQELCRVMFDALEQKWKQTEQADLINELYQGKLKDYVRCLECGYEGWRIDTYLDIPLVIRPYGSSQAFASVEEALHAFIQPEILDGPNQYFCERCKKKCDARKGLRFLHFPYLLTLQLKRFDFDYTTMHRIKLNDRMSFPEELDMSTFIDIEDEKSPQTESCTDSGAENEGSCHSDQMSNDFSTDDAVDEGICLESSSGSEKISKPGLEKNSLMYELFSVMVHSGSAAGGHYYACIKSFSDDQWYSFNDQHVSRITQEDIKKTHGGSSGSRGYYSSAFASSTNAYMLIYRLKDPTRNAKFLEVDEYPEHIKNLVQKERELEEQEKRQREIERNTCKIKLFCLHPVKQVMMENKLEVHKDKTLKEAVEMAYKMMDLEDVIPLDCCRLVKYDEFHDYLERSYEGEEDTPMGLLLGGVKSTYMFDLLLETRKPDQIFQSYKPGEVMVKVHVVDLKAETVAAPVTVRAYLNQTVTEFKQLISKATHLPADSMRIVLERCYNDLRLLSMPSKTLKAEGFFRSNKVFVESSETVDHQAAFTDSHLWKLLDRHANTIRLFVLLPEQSPGSYSKRTAYQKAGGDSGNVDDDCERVKGPAGNLKSVDAILEESTEKLKSLSLQQQQQDGDNGDSSKSTETSDFENIESPLNERGSSTSVDNRELEQHIQTSDPENFQSEERSDSDVNNDRSTSSVDSDILSSSHSSDTLCNADSAQIPLANGLDSHSITSSRRTKANEGKKETWDTAEEDSGTDSEYDESGKSRGDMQYMYFKADPYTADEGSGEGHKWLMVHVDKRITLAAFKQHLEPFVGVLSSHFKVFRVYTSNQEFETVRLNETLSSFSDDNKITIRLGRALKKGEYRVKVCQLLVNEQEPCKFLLDAVFAKGMTVRQSKEELIPQLREQCGLDLSIDRFRLRKKTWKNPGTVFLDYHIYEEDINISSNWEVFLEVLDGVEKMKSMSQLAILTRRWRPAEMKLDPFQELVLESNSVDELREKLSEISGIPLEDIEFAKGRGTFPCDISVLDIHQDLDWNPKVSTLNVWPLYICDDGAVIFYRDRTEEVMELTDEQRNELMKKESSRLQKTGHRVTYSPRKEKALKIYLDGAPNKDVAQD
# B5: SPAG1 (Sperm-associated antigen 1) (protein, UniProt Q80ZX8 1-901)
# chain: MTAKAKDCPSLWGFGTTKTFKIPIEHLDFKYIENCSDVKHLEKILYVLRSGEEGYYPELTEFCEKCLTNLAPKSRALRKDKPAETASSFSAEEWEKIDSDLKSWVSEIKREENTCHFHDPENHPGVEDPLPPVRGSTCCPHSGKETYSKSKTAKKRIPRDYAEWDKFDVEKECSKIDEDYKEKTVINNKAHLSKIETKIETAGLTEKEKSFLANREKGKGNEAFYSGDYEEAVMYYTRSLSALPTAIAYNNRAQAEIKLQRWSSALEDCEKALELDPGNVKALLRRATTYKHQNKLQEAVDDLRKVLQVEPDNDLAKKTLSEVERDLKNSEPVSELQTKGKRMVIEEVENSGDEGGKGSADEREDGGSDEAAMGNIQKKLMVRRSEGGRRSRRGRTPGPRAEQQGGLRETATASTGDSHYPEEPRAADNPSGLKRRGNELFRGGQFAEAAAQYSVAIAQLEPTGSANADELSILYSNRAACYLKEGNCRDCIQDCNRALELHPFSVKPLLRRAMAYETLEQYRNAYVDYKTVLQIDCGIQLASDSANRIARILTELDGSKWRERLPPIPAVPTSEPLRVWLPAAETPDQDPCPNNCMPSITDEKMFQALKEEGNQLVKDKNYKDAISKYNECLKINSKACAIYTNRALCYLKLGQFEEAKLDCEQALQIDGENVKASHRLALAQKGLENCRESGVDPSQVLLSPDSSEAARHLDTKNDTAPPSKGRERRRIQVQEVDGSSDEEPERPAEASATSAPARDGVEDGGSAEPAEKLDVSKPTNAYEFGQVLSTISARKDEEACAHLLAITAPKDLPLLLSNKLEGDTFLLLIQSLKSHLVAKDPSLVYEHLLYLSKAERFKTMLTLINKGQKEQMAQLFDGLSDTQSDGLTAEDVQALRRQYEL
# B6: SPATA20 (Spermatogenesis-associated protein 20) (protein, UniProt Q80YT5 1-790)
# chain: MSHHSSPPPKHKGEHKGHGLPRGSERGSSSRDKDRSATTVSSSAPMPAGGKSSRTNCPPPAPPKTVNRLINEKSPYLLQHAYNPVDWYPWGQEAFDKAKKENKPIFLSVGYSTCHWCHMMEEESFQNEEIGRLLNENFICVMVDREERPDVDKVYMTFVQATSSGGGWPMNVWLTPGLQPFVGGTYFPPEDGLTRVGFRTVLMRICDQWKLNKNTLLENSQRVTTALLARSEISVGDRQIPASAATMNSRCFQQLDEGYDEEYGGFAEAPKFPTPVILNFLFSYWLSHRLTQDGSRAQQMALHTLKMMANGGIQDHVGQGFHRYSTDRQWHIPHFEKMLYDQAQLSVVYTQAFQISGDEFYADVAKGILQYVTRTLSHRSGGFYSAEDADSPPERGMKPQEGAYYVWTVKEVQQLLPEPVVGASEPLTSGQLLMKHYGLSEVGNINSSQDPNGELHGQNVLMVRYSLELTAARYGLEVEAVRALLNTGLEKLFQARKHRPKAHLDNKMLAAWNGLMVSGFAVTGAALGMEKLVAQATSGAKFLKRHMFDVSSGRLKRTCYAGTGGTVEQSNPPCWGFLEDYAFVVRGLLDLYEASQESSWLEWALRLQDTQDKLFWDPRGGGYFCSEAELGADLPLRLKDDQDGAEPSANSVSAHNLLRLHSFTGHKDWMDKCVCLLTAFSERMRRVPVALPEMVRTLSAQQQTLKQIVICGDPQAKDTKALLQCVHSIYVPNKVLILADGDPSSFLSRQLPFLSSLRRVEDRATVYIFENQACSMPITDPCELRKLLHQ
# Biological target: PSMA8 (testis-specific proteasomal subunit α4s), endogenous (mouse (endogenous in testis)) (UniProt Q9CWH6)
# Experiment: affinity purification with mass spectrometry; anti-PSMA8 antibodies R1 and R2 (detect PSMA7/8) bound to sepharose beads; 20 mg wild-type mouse testis extract in 50mM Tris HCl (pH8), 500mM NaCl, 1mM EDTA, 1% tritonX-100, o/n; buffer lacking ATP and glycerol; eluted in 100 mM glycine pH3
row,binding,Molecule
1,binds,NEDD4 (from UniProt P46935 1-887)
2,binds,USP9X (from UniProt P70398 1-2559)
3,binds,CCT6b (from UniProt Q61390 1-531)
4,binds,"CDK1 (cyclin dependent kinase), endogenous (from UniProt P11440 1-297)"
5,binds,TRIP12 (from UniProt G5E870 1-2025)
6,binds,RAD18 (from UniProt Q9QXK2 1-509)
7,binds,RNF17 (from UniProt Q99MV7 1-1640)
8,binds,TDRD6 (tudor domain protein) (from UniProt P61407 1-2134)
9,binds,USP34 (from UniProt Q6ZQ93 1-3582)
10,binds,USP5 (from UniProt P56399 1-858)
11,binds,B1
12,binds,B2
13,binds,B3
14,binds,B4
15,binds,B5
16,binds,B6
